In patent US12473298B2, “Amide compounds, preparation method therefor, and use thereof in the medical field” (Shanghai Synergy Pharmaceutical Sciences Co., Ltd., priority 2019, dated 2025):
At least one structure is not confirmed: it was looked up by name or label, or the drawing left a doubt.

Test system: human diffuse large B-cell lymphoma cells (WSU-DLCL2 cell)
Experiment: Pharmacodynamic experiment in combination with other drugs, WSU-DLCL2 transplanted tumor model in mice
Assay type: in vivo, mice (CB17/SCID)
Conditions: 125 mg/kg, combined with four positive control drugs (CHOP)

Q: With `CCCN1CC2(CCOCC2)c2ccc(-c3cc(N(CC)C4CCOCC4)c(C)c(C(=O)NCc4c(C)cc(C)[nH]c4=O)c3Cl)cc21` [Example 57] as the molecule, how does the tumor disappearance read?
A: The tumor disappearance was “tumors in several mouse disappeared”.
